# Percent effect of library compounds

From ChEMBL document CHEMBL3988442, “University of Dundee, Small-Polar-MMV Screening Library” (2021).

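Growth of Mycobacterium tuberculosis over 3 days (7H9 medium with glucose and tyloxapol); the read-out is not stated. Compounds at 50 µM. Higher reads as more growth inhibition (inferred: compounds with an IC50 in retests scored well above the rest). Of about 69,000 compounds tested this way, about 760 (1.1%) reached 50% or more in at least one test.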

Results are given as percent effect. How 0% and 100% were set is not recorded. Most values in the screen are low, and negative values occur. This is an unselected part of the compounds tested. Two or more numbers in one place are separate tests of the same structure; such repeats can differ widely.

structure,effect
Cc1nn(C)c(Oc2ccccc2)c1CNC1CCCCNC1=O (stereo unspecified),11.85
Cc1csc(CNc2nc3c(s2)c(C)nn3C)n1,5.864 & 1.426
CCn1c(CN2CCCC2)nnc1C1CCN(S(=O)(=O)CC)CC1,17.05
Cc1nnc(C(C)N2CCN(Cc3ccc(C(F)(F)F)cc3)CC2)o1 (stereo unspecified),14.3 & 2.175
c1csc(CCNc2nc(-c3ccncc3)nc3c2CCNCC3)c1,52.53 & 49.98
Cc1ccc2oc(CN3CCC(C(=O)O)(n4ccnc4)CC3)c(C)c2c1,-16.57
COc1ccc(CC(=O)N2CCCCC2Cn2cc(C)cn2)cc1F (stereo unspecified),-6.903
CC(C)NC(=O)c1nnn(-c2cccc(F)c2)c1C1CC1,-21.23
Cc1cc(CC(C)Nc2ncnc3cccc(F)c23)[nH]n1 (stereo unspecified),20.59
CCOCc1cnc2n1CCN(C(=O)Cc1ccco1)C2C (stereo unspecified),2.172 & 9.733
COc1ccccc1C1(NCc2c(C)nc3c(C)cccn23)CCCC1.Cl,-37.07
Cc1ccc(CN2Cc3c(C(=O)N4CCOCC4)nn(C)c3C2)s1.O=C(O)C(F)(F)F,14.93
Cc1ccc(S(=O)(=O)n2ccn(C(=O)CC(C)C)c2=O)cc1,30.34
Cn1cnc(S(=O)(=O)NCCN2CCCCCC2=O)c1Cl,-13.02
CCOc1ccc(N(CCC#N)C(=O)c2ccc(OC)nc2)cc1,-3.358 & -13.48
COCCN1C[C@@H](C)[C@@]2(COCCN(C(=O)c3cnc(C)cn3)C2)C1.O=C(O)C(F)(F)F,-3.585
O=C(O)C(F)(F)F.O=C(c1cnoc1)N1CCC[C@]2(C[C@H](Oc3ncccc3F)CO2)C1,7.765
CCc1csc(C2CCCN(C(=O)c3ccncc3)C2)n1 (stereo unspecified),-16.25
CC(=O)Nc1nc(CN2CCn3c(nnc3C(C)C)C2)cs1,-7.321
CC(C)(C)C(=O)Nc1ccc(Oc2ccsc2C(=O)O)cc1,6.392 & 14.14
CCOCC1CC2(CCN(C(=O)C3CCSCC3)CC2)CO1 (stereo unspecified),-34.71 & -5.904
O=C(CCCNc1ncccn1)N1CCCC(n2ccnc2)C1 (stereo unspecified),-8.876
c1ccc(CN2CCC(CNc3ncnc4c3CCNCC4)CC2)cc1,20.47
CCCNC(=O)COc1cc(C)c2c(C)nn(-c3ccccc3)c2n1,2.207
O=C(O)C(F)(F)F.O=S(=O)(NC1CCC12CCN(CC1CC1)CC2)c1ccccc1 (stereo unspecified),-2.932 & -3.593
CC(=O)Nc1cc(CCC2CCN(C(=O)c3ccccn3)CC2)ccn1,-29.77
CC(C)CNc1nccc(-c2cnc3sc(Cl)cn3c2=O)n1,12.31
CN(CC1CC1)C(=O)CN1CCCC1c1cnn(C)c1 (stereo unspecified),-22.53
O=S(=O)(NCC1(c2cccs2)CCOCC1)c1ccc2c(c1)OCCO2,5.881
Cc1nc(C)c(C(=O)OCCNc2ncccc2C#N)s1,17.16
Cc1ccc(C)c(S(=O)(=O)NCCNc2ccc(-n3cccc3)nn2)c1,26.13 & 16.51
COc1ccccc1NC(=O)NCCCn1nc2ccccn2c1=O,-34.41
Cn1[nH]c(CNc2cccc(Cl)c2)nc1=O,25.9
CN(C(=O)CN1CCCC1c1cnn(C)c1)C1(C#N)CCCCC1 (stereo unspecified),-25.25
Cc1c(S(=O)(=O)N2CCOCC2)cc2c(C)cc(=O)n3c2c1CCC3,-16.18
CCN1CCC2(CCC1=O)CN(c1ccnc(SC)n1)CCN2C (stereo unspecified),11.07
CN(C(=O)Cc1ccccc1Cl)C1CCN(c2ccccn2)CC1,26.19
COCCN(C)C[C@@H]1CN(C(=O)c2ccc(=O)n(C)c2)C[C@@H]1CO,-0.1277
CCc1nnc2n1CCN(Cc1csc(-c3cnn(C)c3)n1)C2,-12.72 & -13.06
O=C(Cn1cc(I)cn1)N1CCCCCC1,-0.6731
c1cncc(C[C@@H]2CC[C@H](CN3CCCOCC3)O2)c1,4.479
CCNc1cc2c(nn1)CCN(C(=O)c1cccnc1N(C)C)C2,17.88
Cc1cc(-c2ccc(C(=O)O)cc2)nc(C2CCN(C(C)C)CC2)n1,-14.85
CCOc1ccc(NC(=O)c2ccc(C#N)cc2C)cc1CO,10.6
CC(=O)N1CCC(N2CCOC[C@H]2c2nc(-c3ccncc3)c[nH]2)CC1,-20.09 & -6.042
CC(C)c1nnc(NC(=O)CSCc2cc(=O)n3ccccc3n2)s1,-6.311
COc1ccc(CCNC2CCCN(Cc3noc(C)n3)C2)cc1 (stereo unspecified),-21.97
O=C1CC[C@@H](C(=O)N2CCC(Cn3cc(C4CCCCC4)nn3)CC2)N1,-4.121 & -4.074
CCSc1cc(C(=O)N(CC(F)F)C(C)C)ccn1,3.255 & 20.37
Cc1cnn(CC2CCCCN2c2ncnc3ccccc23)c1 (stereo unspecified),3.772 & -9.289
CN(C)CCN1C(=O)CCC12CCN(Cc1cccs1)CC2.O=C(O)C(F)(F)F.O=C(O)C(F)(F)F,5.47
CS(=O)(=O)NC1CCCN(C(=O)COCc2ccccc2)C1 (stereo unspecified),12.04
Cc1cc(C(=O)NCC(C)C)c2c(C3CCCN3)noc2n1 (stereo unspecified),25.91
CC(C)NC(=O)CCCn1cnc2ccccc2c1=O,-39.38
COc1ccc(C(NCc2cccc(O)c2)C2CC2)cc1 (stereo unspecified),-29.4
CCC(C)Oc1ccccc1CN1Cc2ncccc2C1=O (stereo unspecified),-6.249
O=C(Cn1ccnc1)N1CC[C@H](Oc2cccc(F)c2)[C@@H](O)CC1,3.792
CSCC[C@@H](CO)Nc1ccc(-c2nc(C3CC3)no2)cn1,-1.963 & 21.34
CCNC(=O)C(C)(C)NC(=O)NCc1cccc(Br)c1,12.13 & 3.167
CN1CCN(CCOc2ccc(NC(=O)c3cnc[nH]3)cc2)CC1,-22.39
CCCS(=O)(=O)NC(=O)c1sc(C2CCCC2)nc1C,21.19
CC(C)Cc1cc(CC2(NCc3ccccc3Cl)COC2)no1,-6.677 & 8.276
Cc1n[nH]c(C)c1C1COCCN1C(=O)c1cc(F)ccc1F (stereo unspecified),-3.567
COC(=O)c1cccc(C(=O)N(C)Cc2cccc(O)c2)c1,-22.23
CN(CC1CCOC1)S(=O)(=O)c1cccc(C(=O)N2CCCCCC2)c1 (stereo unspecified),14.15
CCc1ccc(CN2CCN(C)c3ncccc3C2)o1.O=C(O)C(F)(F)F.O=C(O)C(F)(F)F,-28.78
CC(NCC1(N(C)C)CCOCC1)c1ccc(Cl)cc1 (stereo unspecified),3.02 & 0.7153
CN1C[C@@H](O)[C@]2(CCN(C(=O)c3ccccc3)C2)S1(=O)=O,-9.16
O=C(CCN1CCOCC1)N1CCC(Cc2ccc(CO)cc2)C1 (stereo unspecified),-2.269
COC(=O)CC(NC(=O)c1ccccc1OC)c1cccs1 (stereo unspecified),-23.41
O=S(=O)(NCc1ccccc1Cn1cncn1)C1CCCC1,-15.72
CCCOCC(=O)N1CCc2c(cccc2S(=O)(=O)N2CCOCC2)C1,20.22
O=C(CCn1cccn1)N1CCSCC1,-20.83
NCC1Cc2cccc(-c3nccc(N4CCC(O)CC4)n3)c2O1 (stereo unspecified),19.47
CCOc1cc(C)nc(N2CCN(Cc3nccn3C)CC2)n1,12.28 & 8.092
Cc1cc(C)n(CC2CN(Cc3cccc(C#N)c3)CCO2)n1 (stereo unspecified),-8.94
COCCCc1nc(-c2ccc(S(=O)(=O)N3CCCC3)cc2)cs1,0.3157
Cc1ncnc(NC(CC(C)(C)C)c2cccnc2)c1C (stereo unspecified),-57.71 & -0.633
Cc1ccc(C(=O)N2CCOCC3(CCN(C4CCOCC4)C3)C2)o1.O=C(O)C(F)(F)F (stereo unspecified),14.96
O=C1Nc2ccccc2CC12CCCN2Cc1ccc(C(F)(F)F)cc1 (stereo unspecified),2.032
Cc1ccc(CN(Cc2cc(C)no2)C2CC2)cc1,6.465
COCCOc1ncccc1C(=O)N1CCCC(n2ccnc2C)C1 (stereo unspecified),-12.74
CCNC(=O)N(C)C(c1cccnc1)C(C)C (stereo unspecified),23.48
c1ccc2c(N3CCCCC3)cnnc2c1,0.8263

7 of the entries, repeated:

{"structure": "O=C(CCCNc1ncccn1)N1CCCC(n2ccnc2)C1", "stereo": "stereo unspecified", "effect": -8.876}
{"structure": "CSCC[C@@H](CO)Nc1ccc(-c2nc(C3CC3)no2)cn1", "effect": "-1.963 & 21.34"}
{"structure": "CCc1nnc2n1CCN(Cc1csc(-c3cnn(C)c3)n1)C2", "effect": "-12.72 & -13.06"}
{"structure": "COc1ccc(C(NCc2cccc(O)c2)C2CC2)cc1", "stereo": "stereo unspecified", "effect": -29.4}
{"structure": "CN(C(=O)Cc1ccccc1Cl)C1CCN(c2ccccn2)CC1", "effect": 26.19}
{"structure": "Cc1ccc(CN2Cc3c(C(=O)N4CCOCC4)nn(C)c3C2)s1.O=C(O)C(F)(F)F", "effect": 14.93}
{"structure": "Cn1[nH]c(CNc2cccc(Cl)c2)nc1=O", "effect": 25.9}